# For at least one entry, the source does not settle the construct or the ends of the probe. For part of these data: The comparison behind a weaker result is the experiment's own reference, which may not be listed here.
# By UniProt entry, the sequences of proteins in these tests, tags left out. Residues count along the entry.
# UniProt Q15554, 87-542, stated change not applied: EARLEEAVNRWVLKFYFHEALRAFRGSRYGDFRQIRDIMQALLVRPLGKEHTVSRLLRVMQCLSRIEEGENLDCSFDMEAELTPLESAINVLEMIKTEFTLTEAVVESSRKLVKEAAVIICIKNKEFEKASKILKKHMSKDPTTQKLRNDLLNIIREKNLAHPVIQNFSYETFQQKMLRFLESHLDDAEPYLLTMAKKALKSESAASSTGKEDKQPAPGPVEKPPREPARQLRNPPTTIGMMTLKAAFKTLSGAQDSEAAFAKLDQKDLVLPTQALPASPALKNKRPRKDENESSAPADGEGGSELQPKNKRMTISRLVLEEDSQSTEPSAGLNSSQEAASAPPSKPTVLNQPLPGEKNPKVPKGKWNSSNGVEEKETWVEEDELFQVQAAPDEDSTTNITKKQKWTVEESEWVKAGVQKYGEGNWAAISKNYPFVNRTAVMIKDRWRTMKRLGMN
# Assays:
# [1] = tested on: TRF1; assay: fluorescence anisotropy; conditions: 3'-C6 aminoalkyl linker on one strand, FA: 50 mM NaCl, 50 mM sodium phosphate pH 7.0, 25 °C, 7.5 nM DNA, recombinant protein, label: Alexa Fluor 488 at 3' end of one strand
# [2] = biological target: TRF2ΔB (human) (UniProt Q15554); assay: fluorescence anisotropy; conditions: affinity similar to TRF2 in presence of Rap1; 3'-C6 aminoalkyl linker on one strand; FA: 50 mM NaCl, 50 mM sodium phosphate pH 7.0, 25 °C, 7.5 nM DNA; recombinant protein; label: Alexa Fluor 488 at 3' end of one strand
sequence,measurement,setting,value
GTTAGGGTTAGGGTTAG (double strand) [R2],binding result,"[1]; with Rap1 (no complex with TRF1), no significant Kd change",binds
same,binding result,[1]; without Rap1,binds
same,binding result,[2],binds more weakly

# Source: paper PMC4357705, “Human Rap1 modulates TRF2 attraction to telomeric DNA”
